Data: PubChem BioAssay AID588590 (National Center for Advancing Translational Sciences (NCATS), 2011)
The campaign covered roughly 390,000 compounds. About 4,000 (1%) were called active. Inconclusive results, whose numbers are uncertain, are shown with a selection of clear calls. Calls follow the shape of the dose curve; as a rule, active = well fitted inhibition curve with a large enough effect; inconclusive = small, poorly fitted or top-dose-only effect, or another doubt; inactive = no such curve, though single readings can be large or run the other way. Potencies of inconclusive entries are doubtful fits and often do not repeat.

By UniProt entry, the sequences of proteins in these tests, tags left out. Where a name states a change or a piece, a line headed by the entry shows the natural chain unless it says otherwise.
UniProt Q9UNA4: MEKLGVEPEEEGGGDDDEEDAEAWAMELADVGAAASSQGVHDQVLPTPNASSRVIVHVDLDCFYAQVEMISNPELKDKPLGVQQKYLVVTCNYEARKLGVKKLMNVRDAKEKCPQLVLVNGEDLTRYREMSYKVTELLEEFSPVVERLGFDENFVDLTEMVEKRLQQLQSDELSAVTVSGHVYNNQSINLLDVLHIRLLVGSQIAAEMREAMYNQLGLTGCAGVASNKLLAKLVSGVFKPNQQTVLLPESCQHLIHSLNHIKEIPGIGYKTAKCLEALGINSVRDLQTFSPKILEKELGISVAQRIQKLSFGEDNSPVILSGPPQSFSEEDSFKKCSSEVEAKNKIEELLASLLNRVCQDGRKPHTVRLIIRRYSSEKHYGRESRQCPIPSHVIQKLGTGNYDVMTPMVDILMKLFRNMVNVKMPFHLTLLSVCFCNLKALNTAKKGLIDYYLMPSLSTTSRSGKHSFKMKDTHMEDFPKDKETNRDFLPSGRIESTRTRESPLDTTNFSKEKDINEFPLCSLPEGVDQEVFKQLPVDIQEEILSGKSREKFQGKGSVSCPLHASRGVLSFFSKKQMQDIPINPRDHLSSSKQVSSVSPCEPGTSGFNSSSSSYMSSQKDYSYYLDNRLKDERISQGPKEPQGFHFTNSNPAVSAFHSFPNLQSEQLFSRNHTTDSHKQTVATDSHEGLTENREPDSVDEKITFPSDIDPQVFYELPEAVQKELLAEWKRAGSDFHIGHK

These compounds were tested against DNA polymerase iota (Homo sapiens) (UniProt Q9UNA4) (assay: qHTS for Inhibitors of Polymerase Iota). Details: Pol iota fluorescent replication assay, 10 min; series mostly up to 115 µM.
How it was run: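 Pol iota at 10 nM preincubated 15 min with compounds at room temperature; reaction started with fluorescent substrate, 50 nM final. Fluorescence read kinetically at 0 and 10 min; buffer-only wells as negative control.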
Potency is read from the fitted curve at half-maximal effect.

`O=C(C=C=Nc1ccccc1)C(=O)N=C=Cc1ccccc1` was tested. Which Potency did it give?
Its Potency is inconclusive: 3.55 µM [inhibitor, partial curve, poor fit].

`CCOc1ccc(CN2CCc3nc(N4CCN(c5ccccc5OC)CC4)ncc3C2)cc1OC` was tested. Which Potency did it give?
Its Potency is inconclusive: 25.1 µM [inhibitor, partial curve, poor fit].

`Cc1c(C(N)=O)c(-c2ccccc2)nn1-c1ccccc1` was tested. Which Potency did it give?
Its Potency is “inactive”.

Which Potency does the source give for `O=C(Nc1cc(-c2nc3ccccc3o2)ccc1Cl)c1sc2c([N+](=O)[O-])cccc2c1Cl` here?
Its Potency is “inactive”.

For `CCCc1[nH]nc2c1C(c1ccccc1OCC)C(C#N)=C(N)O2` (stereo unspecified), which Potency is on record?
The Potency was inconclusive: 39.8 µM [inhibitor, single point].

`CCOc1ccc(NCc2cccn2-c2nnc(N3CCC(C(=O)NCC(C)c4ccccc4)CC3)s2)cc1` (stereo unspecified) was tested. Which Potency did it give?
Its Potency is “inactive”.

How did the Potency turn out when `O=C(CSc1nccn1Cc1ccccc1)NCc1ccco1` was run?
The Potency was inconclusive: 89.1 µM [inhibitor, single point].

`Cc1ccc(/C=C2\SC(=S)N(Cc3ccccc3)C2=O)o1` was tested. Which Potency did it give?
Its Potency is “inactive”.

How did the Potency turn out when `O=C(C[n+]1ccc(-c2cc(C(=O)Nc3cccc(C(F)(F)F)c3)c3ccccc3n2)cc1)c1cccc([N+](=O)[O-])c1` was run?
The Potency was inconclusive: 79.4 µM [inhibitor, single point].

For `CCN(CC)c1ccc(NC(=O)C2CCN(c3nnc(-n4cccc4)s3)CC2)c(C)c1`, which Potency is on record?
The Potency was inconclusive: 89.1 µM [inhibitor, single point].

Which Potency does the source give for `CCCCCOc1ccc(Br)cc1/C(C)=N/NC1=NCCN1` here?
The Potency was inconclusive: 3.16 µM [inhibitor, single point].

With `O=C(NC(NC(=S)Nc1ccccc1)C(Cl)(Cl)Cl)c1cccc(Cl)c1` (stereo unspecified) as the compound, how does the Potency read?
Its Potency is inconclusive: 35.5 µM [inhibitor, partial curve, poor fit].

For `COC(=O)[C@]1(C)N[C@H](CN(C)C(=O)c2ccccc2)[C@@H]2C(=O)N(Cc3ccccc3)C(=O)[C@@H]21`, which Potency is on record?
The Potency was inconclusive: 22.4 µM [inhibitor, single point].

`COc1ccc(-c2ccc(CCC(=O)O)n2CC(C)C)cc1` was tested. Which Potency did it give?
Its Potency is inconclusive: 56.2 µM [inhibitor, partial curve, poor fit].

Which Potency does the source give for `O=C(CCN1C(=O)/C(=C\C=C\c2ccccc2)SC1=S)Nc1ccccc1C(=O)O` here?
Its Potency is inconclusive: 56.2 µM [inhibitor, partial curve, poor fit].

How did the Potency turn out when `COc1ccc(Nc2nnc(SCc3cc(=O)n4ccsc4n3)s2)cc1` was run?
Its Potency is inconclusive: 56.2 µM [inhibitor, partial curve, poor fit].

Which Potency does the source give for `O=C(Nc1ccc(C(=O)O)cc1)/C(=C\c1ccco1)NC(=O)c1ccc(Br)o1` here?
The Potency was inconclusive: 14.1 µM [inhibitor, partial curve, poor fit].

`CCN(CC)c1ccc(NS(=O)(=O)c2ccc3c(c2)oc(=O)n3C)c(C)c1` was tested. Which Potency did it give?
The Potency was inconclusive: 20 µM [inhibitor, single point].

Which Potency does the source give for `CCOc1ccccc1C(=O)N(Cc1ccco1)Cc1ccco1` here?
The Potency was inconclusive: 89.1 µM [inhibitor, single point].

Which Potency does the source give for `Cc1nc(CC(=O)NNS(=O)(=O)c2ccc3ccccc3c2)cs1` here?
The Potency was “inactive”.

How did the Potency turn out when `Cc1cccc2sc(N(Cc3cccnc3)C(=O)CCc3ccccc3)nc12` was run?
Its Potency is inconclusive: 89.1 µM [inhibitor, partial curve, poor fit].

With `Cc1ccc2[nH]c(=O)c(-c3nc4cc(C)ccn4c3NCc3ccco3)cc2c1` as the compound, how does the Potency read?
The Potency was inconclusive: 50.1 µM [inhibitor, partial curve, poor fit].

`N#Cc1c(N)nc(SCc2ccncc2)c(C#N)c1-c1cccs1` was tested. Which Potency did it give?
The Potency was inconclusive: 50.1 µM [inhibitor, partial curve].

How did the Potency turn out when `CCCOc1ccc(/C=N/NC(=O)c2ccc(Cn3cc([N+](=O)[O-])cn3)o2)cc1` was run?
The Potency was inconclusive: 79.4 µM [inhibitor, partial curve].

With `CC(/C=N/NC(=O)c1cc(-c2ccncc2)nc2ccccc12)=C\c1ccco1` as the compound, how does the Potency read?
Its Potency is inconclusive: 31.6 µM [inhibitor, partial curve, poor fit].

For `COC(=O)C1=C(O)/C(=C\c2ccc(O)c(OC)c2)N=C1C`, which Potency is on record?
Its Potency is inconclusive: 50.1 µM [inhibitor, partial curve, poor fit].

For `COc1ccc(OC)c(NS(=O)(=O)c2cc3c(cc2Cl)N(C(C)=O)CCO3)c1`, which Potency is on record?
The Potency was “inactive”.

With `CCCCC1=CC2=C(c3ccco3)C(=O)C(C)(OC(=O)c3ccc(OC)cc3)C(=O)C2=CN1Cc1ccccc1` (stereo unspecified) as the compound, how does the Potency read?
Its Potency is inconclusive: 35.5 µM [inhibitor, single point].

For `Cc1c(C(=O)NNC(=O)Nc2ccc([N+](=O)[O-])cc2)oc2ccccc12`, which Potency is on record?
The Potency was inconclusive: 63.1 µM [inhibitor, partial curve, poor fit].

`CC(=O)OCC1OC(n2ccc3ccccc32)C(OC(C)=O)C(OC(C)=O)C1OC(C)=O` (stereo unspecified) was tested. Which Potency did it give?
The Potency was inconclusive: 39.8 µM [inhibitor, partial curve, poor fit].

With `O=C(CN1C(=O)C2C3C=CC(C3)C2C1=O)Nc1ccc(F)cc1` (stereo unspecified) as the compound, how does the Potency read?
The Potency was inconclusive: 39.8 µM [inhibitor, partial curve, poor fit].

With `CCOC(=O)c1c(NC(=O)C(C)Sc2cn(CCNC(=O)c3c(F)cccc3F)c3ccccc23)sc2c1CCC2` (stereo unspecified) as the compound, how does the Potency read?
Its Potency is inconclusive: 79.4 µM [inhibitor, partial curve].

`Cc1ccc(OCC(=O)Nc2cc(-c3nn4c(C)nnc4s3)ccc2C)cc1` was tested. Which Potency did it give?
The Potency was inconclusive: 10 µM [inhibitor, partial curve].

For `CC(C)N(C(=O)Cn1cc(SCC(=O)Nc2ccccc2F)c2ccccc21)C(C)C`, which Potency is on record?
The Potency was inconclusive: 89.1 µM [inhibitor, single point].

How did the Potency turn out when `COc1ccc(CCN2C(=O)CC(N3CCN(S(=O)(=O)c4ccccc4)CC3)C2=O)cc1` (stereo unspecified) was run?
The Potency was inconclusive: 44.7 µM [inhibitor, partial curve, poor fit].

`CC(=O)c1nc(N2C(=O)C3CC=C(C)CC3C2=O)sc1C` (stereo unspecified) was tested. Which Potency did it give?
Its Potency is inconclusive: 25.1 µM [inhibitor, partial curve, poor fit].

`Cc1ccc(C(C)C)c(OCCSc2nc(-c3ccccc3F)nc3cc(=O)[nH]n23)c1` was tested. Which Potency did it give?
Its Potency is inconclusive: 79.4 µM [inhibitor, single point].

For `Cc1ccccc1Nc1cc(C(=O)NCCCN2CCN(c3cccc(Cl)c3)CC2)c2ccccc2n1`, which Potency is on record?
Its Potency is “inactive”.

`Cc1c(Cl)cccc1NC(=O)N1CCN(C(=O)c2nsc3ccccc23)CC1` was tested. Which Potency did it give?
The Potency was “inactive”.

How did the Potency turn out when `O=C(c1ccccc1)N1CCN(S(=O)(=O)N2CCCCC2)CC1` was run?
The Potency was inconclusive: 100 µM [inhibitor, partial curve, poor fit].

Which Potency does the source give for `CCOCCCN(Cc1ccco1)S(=O)(=O)c1cc2c(cc1Cl)NC(=O)CO2` here?
The Potency was inconclusive: 28.2 µM [inhibitor, partial curve, poor fit].

How did the Potency turn out when `Cc1c2cnn(CC(=O)NCc3ccc(F)cc3)c(=O)c2c(C)n1Cc1cccc(Cl)c1` was run?
Its Potency is inconclusive: 89.1 µM [inhibitor, single point].

Which Potency does the source give for `COc1cc(C(=O)Nc2ccccc2NC(=O)c2cc(OC)c(OC)c(OC)c2)cc(OC)c1OC` here?
The Potency was inconclusive: 2.51 µM [inhibitor, partial curve, poor fit].

`Fc1ccc(Nc2ccc3ccccc3n2)c(F)c1` was tested. Which Potency did it give?
Its Potency is inconclusive: 25.1 µM [inhibitor, partial curve].

With `CC(Oc1ccc(F)cc1)C(=O)Nc1sc2c(c1C(=O)NCc1cccnc1)CCCC2` (stereo unspecified) as the compound, how does the Potency read?
The Potency was inconclusive: 35.5 µM [inhibitor, single point].

For `O=C(Oc1ccc(N(C(=O)c2ccncc2)S(=O)(=O)c2ccc(Cl)cc2)cc1)c1ccncc1`, which Potency is on record?
Its Potency is “inactive”.

Which Potency does the source give for `CC(=O)Nc1cc(NC(=O)CCCC(=O)O)ccc1Cl` here?
The Potency was inconclusive: 39.8 µM [inhibitor, single point].

Which Potency does the source give for `Nc1ccc(C(=O)N/N=C\C=C\c2ccc([N+](=O)[O-])cc2)cc1` here?
The Potency was inconclusive: 25.1 µM [inhibitor, full curve].

Which Potency does the source give for `O=C(Nc1cccc(Br)c1)c1ccc2nc(N3C(=O)CCC3=O)sc2c1` here?
The Potency was “inactive”.

`COCc1c(C(=O)N2CCN(Cc3ccc(C#N)cc3)CC2)oc2ccccc12` was tested. Which Potency did it give?
Its Potency is inconclusive: 22.4 µM [inhibitor, partial curve, poor fit].

With `CCC(=O)Nc1ccc(NC(=O)c2cccc3c(Br)cccc23)cc1` as the compound, how does the Potency read?
Its Potency is inconclusive: 28.2 µM [inhibitor, partial curve, poor fit].

For `O=C(CN1C(=O)c2ccccc2C1=O)NCc1ccc(N2CCOCC2)cc1`, which Potency is on record?
Its Potency is “inactive”.

Which Potency does the source give for `Cc1nc2sc3c(c2c(=O)n1NC(=O)CCBr)CCCC3` here?
Its Potency is inconclusive: 31.6 µM [inhibitor, full curve, poor fit].

With `CCOc1ccc(-c2nnc(SCc3nc4ccccc4[nH]3)n2N)cc1` as the compound, how does the Potency read?
Its Potency is inconclusive: 14.1 µM [inhibitor, full curve, poor fit].

`COc1ccc(N2CCN(C(=O)c3ccc4[nH]c(C)c(C)c4c3)CC2)cc1` was tested. Which Potency did it give?
The Potency was “inactive”.

With `CCn1cc(C(=O)O)c(=O)c2cc(F)c(N/N=C/c3ccccc3)cc21` as the compound, how does the Potency read?
The Potency was inconclusive: 2.51 µM [inhibitor, full curve, poor fit].

With `COc1c(C)cc(NC(=O)c2ccc3c(c2)NC(=O)CO3)cc1C` as the compound, how does the Potency read?
Its Potency is “inactive”.

With `COc1ccc(N(CC(=O)Nc2cc(OC)cc(OC)c2)S(=O)(=O)c2c(C)n[nH]c2C)cc1` as the compound, how does the Potency read?
The Potency was inconclusive: 89.1 µM [inhibitor, single point].

Which Potency does the source give for `COc1cccc(/C=N/Nc2ccnc(=O)[nH]2)c1O` here?
Its Potency is “inactive”.

For `CCOc1cc(/C=C(\C#N)C(=O)Nc2cccc(C(=O)O)c2)ccc1OCc1ccc(Br)cc1`, which Potency is on record?
Its Potency is active: 7.08 µM.

With `Cc1cc2cc(CNC(=O)c3ccc(S(=O)(=O)N4CCCC4)cc3)ccc2n1C` as the compound, how does the Potency read?
The Potency was inconclusive: 25.1 µM [inhibitor, single point].
